This passage reports survivor count and T/C results from PubChem BioAssay AID248 (DTP/NCI, 2004).

Molecules are shown by their SMILES. The list does not hold the whole screen: it gathers tests that were run many times, whatever their T/C, doses with no T/C, and many T/C values between a quarter and a half above the control. Further doses and runs are listed elsewhere. T/C: endpoint of the treated group in % of that of the vehicle group. Some entries give survivors of the animals treated and no T/C: the source holds a T/C of zero for them, seemingly a mark for toxic or unscored doses. Some survivor counts are full or nearly so, which does not show that the dose was tolerated: the source hardly ever lists a survival T/C far under the control, and the zero likely stands for such cases as well. Counts of survivors are from the toxicity check (mostly the fifth day) where no day follows; animals may have died later. Schedules are NCI's codes, taken here to give the interval after Q, in days (D) or hours (H), and the number of doses after X. Some schedule codes hold Z or #, which are not explained here. Where survival is the endpoint, the PubChem record calls one and a half times the control and up active, and a quarter to a half above the control has no call in these data; cut-offs in other NCI protocols can differ. Some T/C values are followed by the survivors on the day toxicity was checked, most often the fifth; without a count, all were alive then.

The test has as its system L1210 leukemia ip in BDF1 mice, survival T/C. Description: NCI In Vivo Anticancer Drug Screen. Data for tumor model L1210 Leukemia (intraperitoneal) in B6D2F1 (BDF1) mice. Particulars: T/C endpoint: mean survival time, higher T/C = longer survival.
Where [1] appears, read: dose: 100.0 mg/kg/injection, schedule: Q04DX003 (ip), vehicle: Klucel (hydroxypropylcellulose) (HPC).
[2] abbreviates: dose: 200.0 mg/kg/injection, schedule: Q04DX003 (ip), vehicle: Klucel (hydroxypropylcellulose) (HPC).
Setting [3] is: dose: 400.0 mg/kg/injection, schedule: Q04DX003 (ip), vehicle: Klucel (hydroxypropylcellulose) (HPC).
[4] abbreviates: dose: 400.0 mg/kg/injection, schedule: Q04DX003 (ip), vehicle: saline.

As for `c1ccc2c(c1)C1=NCCN1c1ccccc1-2`, the survivor count runs as follows: under setting [1], 0 of 6; under setting [2], 0 of 6; under setting [3], 0 of 6.

Turning to `CC(C)C(=O)Nc1cccc(OC(=O)NC(C)(C)C)c1`, under “dose: 100.0 mg/kg/injection, schedule: Q01DX001 (ip), vehicle: saline with Tween-80”, the survivor count is on record as 6 of 6.

As to `O=C(Nc1ccc(C2=NCCN2)c(O)c1)c1cccc(C(=O)Nc2ccc(C3=NCCN3)c(O)c2)c1`, the survivor count by setting is: (dose: 125.0 mg/kg/injection, schedule: Q01DX Z (ip), vehicle: water) 0 of 6; (dose: 250.0 mg/kg/injection, schedule: Q01DX Z (ip), vehicle: water) 0 of 6.

Take `Cn1c(N)c(N=Cc2ccc(C=Nc3c(N)n(C)c(=O)n(C)c3=O)cc2)c(=O)n(C)c1=O`: the survivor count (dose: 100.0 mg/kg/injection, schedule: Q01DX001 (ip), vehicle: carboxymethylcellulose (CMC)) was 4 of 4.

On to `CCOC1=C(NC(C)=O)C(=O)c2ccccc2C1=O`, for which the survivor count (dose: 150.0 mg/kg/injection, schedule: Q01DX001 (ip), vehicle: other) was 0 of 6 and the survivor count (dose: 300.0 mg/kg/injection, schedule: Q01DX001 (ip), vehicle: other) is recorded as 0 of 6.

Consider `CC(=O)[O][Hg][CH]1Cc2ccccc2O1` (stereo not given), for which the survivor count runs as follows: (dose: 30.0 mg/kg/injection, schedule: Q01DX001 (ip), vehicle: carboxymethylcellulose (CMC)) 3 of 6; (dose: 60.0 mg/kg/injection, schedule: Q01DX001 (ip), vehicle: carboxymethylcellulose (CMC)) 0 of 6; (dose: 75.0 mg/kg/injection, schedule: Q01DX001 (ip), vehicle: carboxymethylcellulose (CMC)) 0 of 6; (dose: 150.0 mg/kg/injection, schedule: Q01DX001 (ip), vehicle: carboxymethylcellulose (CMC)) 0 of 6; (dose: 300.0 mg/kg/injection, schedule: Q01DX001 (ip), vehicle: carboxymethylcellulose (CMC)) 0 of 6.

`C[P+](c1ccc(Cl)cc1)(c1ccc(Cl)cc1)c1ccc(Cl)cc1`: the survivor count runs as follows: (dose: 100.0 mg/kg/injection, schedule: Q04DX003 (ip), vehicle: saline) 1 of 6; (dose: 200.0 mg/kg/injection, schedule: Q04DX003 (ip), vehicle: saline) 0 of 6; under setting [4], 0 of 6.

Turning to `O=C(NCCc1ccccc1)C1CCN(CCc2ccccc2)CC1`, the survivor count (dose: 200.0 mg/kg/injection, schedule: Q01DX001 (ip), vehicle: other) is 1 of 4 and the survivor count (dose: 400.0 mg/kg/injection, schedule: Q01DX001 (ip), vehicle: other) is 0 of 4.

Turning to `OCC1OC(n2cc(Br)c3c2ncn2nnnc32)C(O)C1O` (stereo not given), the survivor count is recorded as 1 of 4 (dose: 50.0 mg/kg/injection, schedule: Q01DX005 (ip), vehicle: saline); 0 of 4 (dose: 100.0 mg/kg/injection, schedule: Q01DX005 (ip), vehicle: saline); 0 of 4 (dose: 200.0 mg/kg/injection, schedule: Q01DX005 (ip), vehicle: saline).

In the case of `C=CCc1cc(CNCC(C)O)c(O)c(OC)c1` (stereo not given), under setting [2], the survivor count is recorded as 5 of 6.

Turning to `COc1ccc(C2NC(=S)N3C(c4ccc(OC)c(OC)c4)NC(=S)N23)cc1OC` (stereo not given), the survivor count (dose: 400.0 mg/kg/injection, schedule: Q04DX003 (ip), vehicle: gum acacia) is listed as 6 of 6.

Consider `O=C(NCCCCCCCCCCNC(=O)N1CC1)N1CC1`, for which the T/C runs as follows: (dose: 1.8 mg/kg/injection, schedule: Q01DX Z (ip), vehicle: carboxymethylcellulose (CMC)) 149 % of control; (dose: 1.8 mg/kg/injection, schedule: Q01DX Z (ip), vehicle: saline) 148 % of control; (dose: 4.0 mg/kg/injection, schedule: Q01DX Z (ip), vehicle: carboxymethylcellulose (CMC)) 126 % of control; (dose: 4.0 mg/kg/injection, schedule: Q01DX Z (ip), vehicle: saline) 131 % of control; (dose: 7.0 mg/kg/injection, schedule: Q01DX001 (ip), vehicle: saline) 129 % of control; (dose: 10.0 mg/kg/injection, schedule: Q01DX001 (ip), vehicle: saline) 144 % of control. For the same molecule, the T/C (dose: 15.0 mg/kg/injection, schedule: Q01DX001 (ip), vehicle: saline) is 145 % of control [4 of 6 alive]. The survivor count by setting is: (dose: 6.0 mg/kg/injection, schedule: Q01DX Z (ip), vehicle: carboxymethylcellulose (CMC)) 6 of 6; (dose: 100.0 mg/kg/injection, schedule: Q01DX001 (ip), vehicle: saline) 0 of 4; (dose: 200.0 mg/kg/injection, schedule: Q01DX001 (ip), vehicle: saline) 0 of 4; (dose: 400.0 mg/kg/injection, schedule: Q01DX001 (ip), vehicle: saline) 0 of 4.

Turning to `NC(N)=N/N=C/c1cc(Cl)cc(Cl)c1O`, the survivor count was 2 of 6 (dose: 150.0 mg/kg/injection, schedule: Q01DX001 (ip), vehicle: saline) and 0 of 6 (dose: 300.0 mg/kg/injection, schedule: Q01DX001 (ip), vehicle: saline).

`CCC(CC)(CCN)c1ccccc1`: the survivor count is, setting by setting: (dose: 200.0 mg/kg/injection, schedule: Q01DX001 (ip), vehicle: carboxymethylcellulose (CMC)) 2 of 4; (dose: 400.0 mg/kg/injection, schedule: Q01DX001 (ip), vehicle: carboxymethylcellulose (CMC)) 0 of 4.

As for `CCCCCCCCCCCC(=O)NC(=S)Nc1cc([N+](=O)[O-])ccc1C`, the survivor count reads like this: under setting [1], 6 of 6; under setting [2], 6 of 6; under setting [3], 6 of 6.

Regarding `C(=NCC(CCN1CCCC1)(CCN1CCCC1)c1cccc2ccccc12)C(CCN1CCCC1)(CCN1CCCC1)c1cccc2ccccc12`, the survivor count was 0 of 6 (dose: 20.0 mg/kg/injection, schedule: Q01DX009 (ip), vehicle: saline with Tween-80); 1 of 3 (dose: 25.0 mg/kg/injection, schedule: Q04DX002 (ip), vehicle: saline); 0 of 6 (dose: 100.0 mg/kg/injection, schedule: Q01DX009 (ip), vehicle: saline with Tween-80); 0 of 6 (dose: 200.0 mg/kg/injection, schedule: Q01DX009 (ip), vehicle: saline with Tween-80); 0 of 6 (dose: 400.0 mg/kg/injection, schedule: Q01DX009 (ip), vehicle: saline with Tween-80).

In the case of `COc1ccc(C(C(C)=O)N2CCN(c3ccccc3)CC2)cc1` (stereo not given), the survivor count (dose: 400.0 mg/kg/injection, schedule: Q04DX003 (ip), vehicle: other) is 2 of 6.

Regarding `CCCCCCCC/C=C\CCCCCCCCNP(=O)(OC)OC`, the survivor count is recorded as 0 of 3 (dose: 200.0 mg/kg/injection, schedule: Q04DX002 (ip), vehicle: saline with Tween-80) and 0 of 3 (dose: 400.0 mg/kg/injection, schedule: Q04DX002 (ip), vehicle: saline with Tween-80).

`Nc1nc(SCc2ccccc2)c2ncn(CCCl)c2n1`: the T/C (dose: 20.0 mg/kg/injection, schedule: Q01DX Z (ip), vehicle: carboxymethylcellulose (CMC)) was 142 % of control; the T/C (dose: 45.0 mg/kg/injection, schedule: Q01DX Z (ip), vehicle: carboxymethylcellulose (CMC)) is 146 % of control; the T/C (dose: 160.0 mg/kg/injection, schedule: Q01DX001 (ip), vehicle: carboxymethylcellulose (CMC)) was 125 % of control.

Consider `O=C(CNC(=O)OCc1ccccc1)NCC(=O)NC(Cc1ccccc1)C(=O)CCl` (stereo not given), for which the survivor count is, setting by setting: (dose: 100.0 mg/kg/injection, schedule: Q01DX001 (ip), vehicle: Klucel (hydroxypropylcellulose) (HPC)) 1 of 6; (dose: 200.0 mg/kg/injection, schedule: Q01DX001 (ip), vehicle: Klucel (hydroxypropylcellulose) (HPC)) 0 of 6; (dose: 400.0 mg/kg/injection, schedule: Q01DX001 (ip), vehicle: Klucel (hydroxypropylcellulose) (HPC)) 0 of 6.

Turning to `C/C(Cc1ccccc1)=N\[N+](C)(C)C`, the survivor count (dose: 300.0 mg/kg/injection, schedule: Q01DX009 (ip), vehicle: saline) was 0 of 6 and the survivor count under setting [4] was 0 of 6.

On to `COc1cc(OC)c(OC)cc1/C=C\c1ccc2ccccc2[n+]1C`, for which the survivor count (dose: 100.0 mg/kg/injection, schedule: Q04DX003 (ip), vehicle: saline with Tween-80) is reported as 2 of 6.

`OCCOc1c(Cl)c(Cl)c(Cl)c(Cl)c1Cl`: the survivor count (dose: 400.0 mg/kg/injection, schedule: Q04DX003 (ip), vehicle: saline with Tween-80) is 0 of 6.
